Test results as given in PubChem BioAssay AID720541 (National Center for Advancing Translational Sciences (NCATS), 2013).
The campaign covered roughly 1,300 compounds. About 420 (32%) were called active. Inconclusive means that the source gave no clear call. Such entries were picked first, then a sample of the others. The call rests on the fitted dose curve; in most records, active means well fitted inhibition curve with a large enough effect; inconclusive means small, poorly fitted or top-dose-only effect; inactive means no such curve, though single readings can be large or run the other way. A potency beside an inconclusive call is a rough fit, not a confirmed value.

Biological target: C-terminal-binding protein 1 (Homo sapiens) (UniProt Q13363)
Experiment: qHTS for Inhibitors of the Phosphatase Activity of Eya2: Carboxyl-terminal binding protein (CtBP) Counterscreen for Cherry-picked Compounds; further: nearly all actives have a fitted effect of over 65% in size
Settings: purified protein-protein binding, AlphaScreen, 3 h; series mostly up to 46.1 µM
Outline: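 Cherry-picked compounds (final 2.5 nM–46 uM) were incubated 2 h at RT with 25 nM CtBP-6xHIS and 25 nM GST-E1A. Alpha beads (20 ug/mL) were then added for 1 h, light-protected; DMSO and E1A peptide inhibitor wells set the normalization.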
Potency means the concentration at half of the fitted maximal effect.

Structure (SMILES) | Potency
Cn1c(=O)n(Cc2ccccc2)c(=O)c2c1nc(NCC1CCCO1)n2Cc1ccccc1 (stereo not drawn) | inactive
COc1ccccc1NC(=O)C1=C(C)NC2=C(C(=O)CC(c3ccc(OC)c(OC)c3)C2)C1c1coc2ccccc2c1=O (stereo not drawn) | inconclusive: 15.1 µM [inhibitor, partial curve]
O=C(O)CC(C(=O)O)N1C(=O)/C(=C/C=C/c2ccco2)SC1=S (stereo not drawn) | inconclusive: 16.9 µM [inhibitor, single point]
Cc1ccc(N=Cc2cccc(O)c2O)c(C)c1 | inconclusive: 19 µM [inhibitor, single point]
Cc1ccc(-n2c(O)c(C=NCc3ccccn3)c3ccccc3c2=O)cc1 | inconclusive: 16.9 µM [inhibitor, single point]
Cc1c(C(=O)O)c(O)cc2c1C(=O)c1c(O)c([C@H]3O[C@H](CO)[C@@H](O)[C@H](O)[C@H]3O)c(O)c(O)c1C2=O | active: 19 µM
CN(C)c1ccc(/C=C2\C=Cc3ccccc32)cc1N | active: 13.5 µM
COc1cc(CNCc2ccc(OC)cc2OC)cc(OC)c1 | inactive
Cc1ccc(-c2n[nH]c(=O)c3ccccc23)cc1S(=O)(=O)N(C)C | inconclusive: 16.9 µM [inhibitor, single point]
O=C(CSc1ncccc1-c1nc2ccccc2[nH]1)NCc1ccco1 | inconclusive: 15.1 µM [inhibitor, single point]
Cc1c(CC(=O)NCCCC(=O)O)c(=O)oc2cc3occ(-c4ccccc4)c3cc12 | active: 13.5 µM
CNc1ccc(C=C2C=Cc3ccccc32)cc1 | inconclusive: 13.5 µM [inhibitor, partial curve]
CCOc1ccc(Nc2cc3n(c(=O)n2)CCc2cc(OC)c(OC)cc2-3)cc1 | active: 5.36 µM
O=c1cc(Nc2ccc3c(c2)OCO3)[nH]c(=O)n1-c1ccc(Br)cc1 | inactive
Cc1ccc(OCC(=O)Nc2ccccc2N2CCCC2)c(C)c1 | inactive
C[C@@H](c1ccccc1)N1C[C@H](COCc2ccccc2)Oc2cc(N3CC[C@@H](N(C)C)C3)ccc2S1(=O)=O | inconclusive: 13.5 µM [inhibitor, partial curve]
CC(C)c1nc2sc3c(SCC(N)=O)ncnc3c2c2c1CCC2 | inconclusive: 1.51 µM [inhibitor, full curve]
Cc1cc(C)c(C#N)c(Sc2nnnn2-c2ccccc2)n1 | inactive
CS(=O)(=O)c1ccc(-c2nnc(NC(=O)C3=COCCO3)o2)cc1 | inactive
CC(=O)Nc1ccc(NC(=O)CSc2nc(N)c(NC(=O)c3ccccc3F)c(=O)[nH]2)cc1 | inconclusive: 19 µM [inhibitor, single point]
Cc1ccc(CN2CCN(/N=C/c3ccc(C)s3)CC2)c(C)c1 | inconclusive: 12 µM [inhibitor, partial curve]
CCCCNc1ccc(/C=C2\C=Cc3ccccc32)cc1 | inconclusive: 10.7 µM [inhibitor, partial curve]
CCOc1ccc(/C=C2\SC(=S)N(CCC(=O)Nc3ccc(C(=O)O)cc3)C2=O)cc1 | inconclusive: 15.1 µM [inhibitor, partial curve]

Part of the list above in another layout.

| Structure (SMILES) | Potency |
| --- | --- |
| O=C(O)CC(C(=O)O)N1C(=O)/C(=C/C=C/c2ccco2)SC1=S (stereo not drawn) | inconclusive: 16.9 µM [inhibitor, single point] |
| COc1cc(CNCc2ccc(OC)cc2OC)cc(OC)c1 | inactive |
| CS(=O)(=O)c1ccc(-c2nnc(NC(=O)C3=COCCO3)o2)cc1 | inactive |
| Cc1ccc(CN2CCN(/N=C/c3ccc(C)s3)CC2)c(C)c1 | inconclusive: 12 µM [inhibitor, partial curve] |

Following part.

Structure (SMILES) | Potency
O=C(Oc1ccc(-c2nnco2)cc1)c1ccco1 | inactive
N#C/C(=C/c1ccc(OC(=O)c2ccc(Br)s2)cc1)c1nc2ccccc2[nH]1 | inactive
Cc1ccc(C(=O)N/C(=C\c2ccco2)C(=O)NCCCn2ccnc2)cc1 | active: 3.79 µM
Cc1cc(Nc2ccccc2C(=O)O)n(-c2cccc(Cl)c2)n1 | active: 7.57 µM
N=C1/C(=C\c2ccc(OC(=O)c3ccccc3)cc2)C(=O)N=C2SC(N3CCOCC3)=NN12 | inconclusive: 16.9 µM [inhibitor, single point]
O=S(=O)(c1ccc(F)cc1)c1nc(-c2ccco2)oc1Nc1ccc(F)cc1 | inconclusive: 19 µM [inhibitor, single point]
CCOc1cc(C=NNC(=O)c2cccc(S(=O)(=O)N3CCCC3)c2)ccc1O | active: 7.57 µM
O=C(CN1CCN(Cc2ccccc2)CC1)Nc1ccc([N+](=O)[O-])cc1C(=O)Nc1ccccc1F | inconclusive: 15.1 µM [inhibitor, single point]
COC(=O)c1ccccc1NC(=S)NC(=O)c1ccc(C)cc1 | inconclusive: 30.1 µM [inhibitor, single point]
O=C(NCc1cccnc1)c1nc(-c2ccccc2)n(-c2ccccc2)n1 | inconclusive: 15.1 µM [inhibitor, partial curve]
O=c1cc2c(=O)oc3cc(O)c(O)oc3c2c(O)c1O | inconclusive: 30.1 µM [inhibitor, single point]
COc1ccc(S(=O)(=O)N2CCCCCC2)cc1C(=O)Nc1cc(C)ccn1 | inconclusive: 15.1 µM [inhibitor, partial curve]
O=C(O)c1cc2nc3c(c(C(F)(F)F)n2n1)CCc1ccccc1-3 | inconclusive: 15.1 µM [inhibitor, partial curve]
CN1/C(=c2/s/c(=C3/C(=O)N(c4ccccc4)NC3=Nc3ccccc3)n(C)c2=O)C(C)(C)c2ccccc21 | inconclusive: 12 µM [inhibitor, partial curve]
Cn1c(N)c(C(=O)CSc2nc(N)cc(N)n2)c(=O)n(C)c1=O | inconclusive: 15.1 µM [inhibitor, single point]
Cc1cnc2c(C)cccc2c1/C=C/c1ccc(N(C)C)cc1 | inconclusive: 12 µM [inhibitor, partial curve]
COc1ccc(N2CCN(C(CNC(=O)C(=O)NCCCn3ccnc3)c3cccnc3)CC2)cc1 (stereo not drawn) | inconclusive: 15.1 µM [inhibitor, single point]
CCOCCCNC(=O)c1cc2sc(Cl)cc2n1CC | inactive
O=S(=O)(NCCSCc1ccc(Cl)c(Cl)c1)c1ccc2c(c1)OCCO2 | inactive
COc1ccc2c(c1)c(C(O)CN1CCC(Cc3ccccc3)CC1)c(C)n2C (stereo not drawn) | inconclusive: 15.1 µM [inhibitor, partial curve]
COc1ccc(-c2ccc(SCc3ccccn3)nn2)cc1OC | inconclusive: 19 µM [inhibitor, single point]
COc1ccc(C(=O)Nc2cccc(S(=O)(=O)NC3=NCCCCC3)c2)cc1 | inconclusive: 15.1 µM [inhibitor, single point]
CN1CCN(S(=O)(=O)c2cccc(C(=O)Oc3ccc(Br)cc3F)c2)CC1 | inconclusive: 13.5 µM [inhibitor, partial curve]

Structure (SMILES) | Potency
O=C(Oc1ccc2c(c1)OCC2=O)c1ccc(Cl)cc1 | inconclusive: 26.9 µM [inhibitor, single point]
O=C1NC[C@@H](CCCCN2C[C@H](Cc3ccccc3)N(CCC3CCCCC3)C(=O)C2=O)N(CCc2ccc(O)cc2)C1=O | inconclusive: 16.9 µM [inhibitor, single point]
O=C(CSc1ncn[nH]1)N1N=C(c2ccc(Cl)cc2)CC1c1ccco1 (stereo not drawn) | inactive
Cc1oc2c(C)c3oc(=O)c(CCC(=O)N[C@@H](CC(C)C)C(=O)O)c(C)c3cc2c1C | inconclusive: 19 µM [inhibitor, single point]
Cc1cc(NC(=O)c2cccc(N3C(=O)CCC3=O)c2)no1 | inactive
CCOC(=O)C1=C[C@@H](C2CCCCC2)N(S(=O)(=O)c2ccc([N+](=O)[O-])cc2)[C@H]1c1ccccc1 | inconclusive: 15.1 µM [inhibitor, partial curve]
CCC(=O)Nc1nc2c(OC)ccc(OC)c2s1 | inactive
NC(N)=Nc1nc2cc([N+](=O)[O-])ccc2o1 | inactive
O=C1/C(=C/C=C/c2ccco2)SC(=S)N1NS(=O)(=O)c1ccccc1 | inconclusive: 13.5 µM [inhibitor, partial curve]
Cc1[nH]n(-c2cccc3ccccc23)c(=O)c1C=Nc1ccc2[nH]c(=O)[nH]c2c1 | active: 7.57 µM
Cc1cccc2sc(NNC(=O)c3ccc(S(=O)(=O)N4CCCC(C)C4)cc3)nc12 (stereo not drawn) | inconclusive: 15.1 µM [inhibitor, single point]
CCN(CC)c1ccc(NC(=O)C2CC3CCC2C3)cc1 (stereo not drawn) | inconclusive: 15.1 µM [inhibitor, partial curve]
CCOc1ccc(Nc2nc(N)nc(CN(C)C3CCCCC3)n2)cc1 | inactive
CCc1ccc2oc(-c3ccc(OC)cc3)cc(=Nc3c(C)n(C)n(-c4ccccc4)c3=O)c2c1 | inconclusive: 12 µM [inhibitor, partial curve]
Cc1csc(NC(=O)CSc2sc3c(O)cc(=O)[nH]c3c2C#N)n1 | active: 12 µM
CCOc1ccc(S(=O)(=O)N2CCN(C)CC2)cc1NC(=O)c1ccccc1F | active: 7.57 µM
CCOC(=O)c1c2c(n3ccccc13)C(=O)c1ccccc1C2=O | inconclusive: 2.39 µM [inhibitor, full curve]
CNc1ccc(C=C2c3ccccc3-c3ccccc32)cc1 | active: 12 µM
CC1(C)CC(=O)C=C(c2ccc(-c3cnn(Cc4ccccc4)c3)cc2)C1=O | inconclusive: 15.1 µM [inhibitor, single point]
CC(=O)c1c(C)oc2c1cc(NS(=O)(=O)c1ccc(C(=O)O)cc1)c1ccccc12 | inconclusive: 16.9 µM [inhibitor, single point]
O=C(Oc1ccc(C(=S)N2CCOCC2)cc1)c1cccc([N+](=O)[O-])c1 | inconclusive: 16.9 µM [inhibitor, single point]
Cc1ccccc1C(=O)Nc1cccc(C(=O)Nc2ccccc2C(=O)O)c1 | inconclusive: 16.9 µM [inhibitor, single point]
